PubChem BioAssay AID504808 – Drosophila RNAi Screening Center – 2011

Assay: 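Fly genes required to hold E2F transcription in check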 (primary screen)
System: Drosophila S2 cells
Reagents: long dsRNA against Drosophila genes
Measured: 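Dual luciferase plate measurements; E2F-specific signal taken as firefly over Renilla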
Scale: E2F firefly: higher = more E2F reporter activity; Renilla normaliser: higher = more normaliser reporter signal
Call rule: 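a knock-down counted as active when the firefly/Renilla E2F signal rose above 50%, a threshold chosen arbitrarily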
The screen tested about 21,000 reagents; this is an unselected part of those that have a named target and a result. In the full data, 18 (0.084%) are marked active. 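Raw counts without plate normalisation, one of two replicates; the ratio scores behind the calls were not deposited.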 Entries without a mark were called inactive. Reagents against one gene are numbered here. Not given: the amount of reagent, the time to read-out.

gene knocked down | reagent no. | E2F firefly, rep 1 | Renilla normaliser, rep 1
CG3349 | 1 | 1.59e5 | 6980
RIOK2 | 1 | 1.04e5 | 6917
Phf7 | 1 | 1.56e5 | 5262
Eig71Ed | 1 | 1.76e5 | 8154
CG10600 | 1 | 70482 | 3706
NijB | 1 | 52780 | 3209
CG10651 | 1 | 98149 | 4378
CG32533 | 1 | 1.65e5 | 5461
CG32533 | 2 | 1.24e5 | 6800
His4r | 1 | 57597 | 25922
mRpL50 | 1 | 71281 | 3334
CG30458 | 1 | 1.40e5 | 4493
anne | 1 | 64989 | 2110
CG33784 | 1 | 67386 | 3487
CG3597 | 1 | 1.66e5 | 6367
CG8343 | 1 | 67384 | 3567
Git | 1 | 3206 | 198
cac | 1 | 1.44e5 | 6331
cac | 2 | 8543 | 832
obst-G | 1 | 1.11e5 | 7753

The list goes on (3 carried over from the part before).
gene knocked down | reagent no. | E2F firefly, rep 1 | Renilla normaliser, rep 1
cac | 1 | 1.44e5 | 6331
cac | 2 | 8543 | 832
obst-G | 1 | 1.11e5 | 7753
CG5860 | 1 | 1.15e5 | 5972
CG15109 | 1 | 1.47e5 | 4955
Mur18B | 1 | 1.52e5 | 5499
Eaf | 1 | 90994 | 4700
Eaf | 2 | 83491 | 3751
dsb | 1 | 95306 | 4146
dsb | 2 | 88391 | 3747
CG17049 (retired record) | 1 | 1.07e5 | 5083
CG2663 | 1 | 1.21e5 | 5748
Rh5 | 1 | 73456 | 3064
alpha-Est1 | 1 | 73598 | 2804
Mal-A8 | 1 | 1.52e5 | 5275
CG9799 | 1 | 83077 | 4360
CG32809 | 1 | 78866 | 1012
CG32809 | 2 | 1.28e5 | 6697
CG32809 | 3 | 1923 | 1068
